Results published in US4598065A, “Use of peptides as medicaments and certain novel peptides” (Novo Industri A/S, priority 1980, dated 1986).
Where “and” joins values, the source holds several entries; their conditions need not be identical. Equal values may be shown once. Part of at least one peptide drawing is inferred or uncertain, most often the ends.

Experiments:
[1] = test system: rat free fat cells; assay: Lipolytic effect on rat free fat cells in vitro; assay type: cell-based
[2] = test system: rats; assay: Metabolic effects (hyperglycemia, insulin release) after administration to rats in vivo; parameters: species or system rat
[3] = test system: electrically stimulated guinea pig ileum; assay: Contractions of the electrically stimulated guinea pig ileum in vitro; assay type: cell-based; conditions: for inhibitory effect on the amplitude of the contractions, potency compared with glucagon: electrically stimulated guinea pig ileum in vitro
Source text: 10^-5 M glucagon caused 83±4% (X±sd, N=3) ihibition compared to 78±5% for glucagon1-21. The effects of 10^-6 M was 50±3% and 52±5%, respectively, and of 10^-7 M: 27±3% for either peptide.

[4] = test system: gall flow in rats; assay: Gall flow in rats in vivo; parameters: species or system rat
[5] = test system: isolated perfused rat pancreas; assay: Insulin release from the isolated perfused rat pancreas; assay type: cell-based; conditions: infused to the same concentration as glucagon
[6] = test system: pentagastrin stimulated gastric acid secretion in gastric fistula cats; assay: Pentagastrin stimulated gastric acid secretion in cats with chronic gastric fistulas; assay type: in vivo, cat
Experimental: 1 μg/kg pentagastrin subcutaneously administered to gastric fistula cats caused an increase in gastic acid secretion of 856±71 μEq (Eq designates equivalent) acid (X±S.E.M., N=18). When 2 μg/kg glucagon1-21 was administered subcutaneously at the same time as 1 μg/kg pentagastrin the increase in acid output was only 417±104 μEq acid (N=6).
In a male cat weighing approx. 4.5 kg equipped with a cronic gastric fistula the gastric acid secretion was stimulated with 4.5 μg pentagastrin (Peptavlon®) in a volume of 1 ml 0.9% saline containing 0.1% human serum albumin subcutaneously in the neck. In 8 experiments 1 ml placebo (0.9% saline with 0.1% human serum albumin) was administered subcutaneously through another cannula in the neck at the same time as the administration of pentagastrin. In 2 experiments 9 μg of glucagon1-21 in 1 ml of the above solution was administered simultaneously with the administration of pentagastrin. Gastric acid secretion was collected over periods of 15 minutes and titrated with 0.01N NaOH. The increase in acid secretion after the administration of pentagastrin was calculated as μEq acid excreted over 11/2 hrs. after the administration subtracting the basal acid secretion before administration of pentagastrin. After administration of 4.5 μg pentagastrin plus placebo the increase in gastric acid secretion was 729± 89 μEq acid (X±S.E.M., N=8). 4.5 μg pentagastrin+9 μg glucagon1-21 caused an increase in acid secretion of 238 μEq in one experiment and 231 μEq in another experiment.

[7] = test system: intestinal motility in rabbits; assay: Intestinal motility in anaesthetized rabbits in vivo (spasmolytic effect, balloon in jejunum); parameters: species or system rabbit
Experimental: One male rabbit weighing 2.56 kg was anaesthetized with nembutal after an overnight fast. The position of the balloon used for measurement of intestinal motility was 1 meter from pylorus in the jejunum. The motility was registered before and after intraveneous administration of 77 μg glucagon1-21 in 1 ml 0.9% saline containing 0.1% human serum albumin. […] The onset of effect was 1 minute after the administration and the duration of effect was 11 minutes.
A male rabbit weighing 2.32 kg was treated as described in Experiment A with the following dosages: […]

[8] = test system: rabbit gall bladder preparation; assay: Relaxation of submaximally contracted rabbit gall bladder preparation in vitro; assay type: cell-based; conditions: 10^-6 M; strip contracted with 0.1 μg/ml cholecystochinin octapeptide
[9] = test system: bile flow in rabbits; assay: Bile flow in rabbits with catheters in the bile duct; assay type: in vivo, rabbit; conditions: for Amount of bile: 154 μg s.c. given after 120 minutes
Experimental: One rex rabbit weighing 2.0 kg was equipped with a catheter in the bile duct during nembutal anaesthesia on the day before the experiment. On the day of the experiment the bile was collected for periods of 15 minutes.
After 45 minutes 200 μg glucagon was administered subcutaneously in 1 ml of 0.9% saline containing 0.1% human serum albumin. After 120 minutes 154 μg glucagon1-21 was administered subcutaneously in 1 ml of the above solution. After 195 minutes the placebo (vide Experiment C) was administered.

[10] = Experiment A, rabbit 2.56 kg, 77 μg i.v.
[11] = Experiment B, rabbit 2.32 kg, 308 μg
[12] = i.v. bolus, 100 to 200 μg glucagon or 77 to 154 μg glucagon1-21, anesthetized rabbits 2.5 to 3.0 kg

## CSCC[C@H](NC(=O)[C@H](CC(=O)O)NC(=O)[C@H](CCC(N)=O)NC(=O)[C@H](C)NC(=O)[C@H](CCCNC(=N)N)NC(=O)[C@H](CCCNC(=N)N)NC(=O)[C@H](CO)NC(=O)[C@H](CC(=O)O)NC(=O)[C@H](CC(C)C)NC(=O)[C@H](Cc1ccc(O)cc1)NC(=O)[C@H](CCCCN)NC(=O)[C@H](CO)NC(=O)[C@H](Cc1ccc(O)cc1)NC(=O)[C@H](CC(=O)O)NC(=O)[C@H](CO)NC(=O)[C@@H](NC(=O)[C@H](Cc1ccccc1)NC(=O)[C@@H](NC(=O)CNC(=O)[C@H](CCC(N)=O)NC(=O)[C@H](CO)NC(=O)[C@@H](N)Cc1c[nH]cn1)[C@@H](C)O)[C@@H](C)O)C(=O)N[C@@H](CC(N)=O)C(=O)N[C@H](C(=O)O)[C@@H](C)O [des(22-26)-glucagon, des-pentapeptide-(22-26)-glucagon]
[1]
  lipolytic effect (metabolic effect) compared with glucagon: negligible
[2]
  metabolic effects after administration in vivo: No metabolic effects
[3]
  inhibitory effect on the amplitude of the contractions, potency compared with glucagon: almost the same potency as glucagon

## CC(C)C[C@H](NC(=O)[C@H](Cc1ccc(O)cc1)NC(=O)[C@H](CCCCN)NC(=O)[C@H](CO)NC(=O)[C@H](Cc1ccc(O)cc1)NC(=O)[C@H](CC(=O)O)NC(=O)[C@H](CO)NC(=O)[C@@H](NC(=O)[C@H](Cc1ccccc1)NC(=O)[C@@H](NC(=O)CNC(=O)[C@H](CCC(N)=O)NC(=O)[C@H](CO)NC(=O)[C@@H](N)Cc1c[nH]cn1)[C@@H](C)O)[C@@H](C)O)C(=O)N[C@@H](CC(=O)O)C(=O)N[C@@H](CO)C(=O)N[C@@H](CCCNC(=N)N)C(=O)N[C@@H](CCCNC(=N)N)C(=O)N[C@@H](C)C(=O)N[C@@H](CCC(N)=O)C(=O)N[C@@H](CC(=O)O)C(=O)O [glucagon1-21, glucagon-(1-21)-heneicosapeptide]
[4]
  effect on gall flow: increase in gall flow
[5]
  insulin release: no such effect
[1]
  lipolytic effect (metabolic effect) compared with glucagon: negligible
[2]
  hyperglycemia in vivo: does not cause hyperglycemia
  insulin release in vivo: does not cause hyperglycemia or release insulin
  metabolic effects after administration in vivo: No metabolic effects
[6]; 2 μg/kg s.c. at the same time as 1 μg/kg pentagastrin s.c., N=6, X±S.E.M., pentagastrin alone 856±71
  increase in acid output: 417±104 μEq acid
[6]; Experiment C, one cat approx. 4.5 kg, 9 μg s.c. with 4.5 μg pentagastrin, two single experiments, pentagastrin plus placebo 729±89
  increase in acid secretion over 11/2 hrs after pentagastrin: 238 μEq and 231 μEq
[6]; cats with chronic gastric fistulas
  effect on pentagastrin stimulated gastric acid secretion: inhibit pentagastrin stimulated gastric acid secretion
[7]; [10]
  duration of effect: 11 min
  onset of effect: 1 min
  spasmolytic effect obtained: nearly complete atonia of the intestine
[7]; Experiment B, rabbit 2.32 kg, 77 μg i.v.
  spasmolytic effect: no detectable spasmolytic effect
[7]; Experiment B, rabbit 2.32 kg, 154 μg i.v.
  spasmolytic effect: questionable effect
[7]; [11]
  duration of the effect: 6 min
  onset of the effect: 21/2
  spasmolytic effect: distinct spasmolytic effect causing nearly complete atonia
[7]; [12]
  duration of inhibition of intestinal motility: about ten
  onset of inhibition of intestinal motility after administration: one
[7]; rabbits in vivo
  reducing effect on intestinal motility, potency compared with glucagon: almost the same potency as glucagon
[8]
  relaxation of gall bladder strip: 41%
[3]; 10^-5 M, X±sd, N=3
  inhibition of contraction amplitude: 78±5%
[3]; 10^-6 M
  inhibition of contraction amplitude: 52±5%
[3]; 10^-7 M
  inhibition of contraction amplitude: 27±3%
[3]
  inhibitory effect on the amplitude of the contractions, potency compared with glucagon: almost the same potency as glucagon
[9]; rabbits with catheters in the bile duct
  gall flow immediately after the administration: decrease in gall flow
[9]; rabbits with catheters in the bile duct, after the initial decrease
  subsequent bile flow: increase in bile flow to quantities higher than before the administration
[9]; sampling period 120-135 minutes, same rabbit
  Amount of bile: 0.40 mL
[9]; sampling period 135-150 minutes
  Amount of bile: 1.65 mL
[9]; sampling period 150-165 minutes
  Amount of bile: 2.05 mL
[9]; sampling period 165-180 minutes
  Amount of bile: 3.50 mL
[9]; sampling period 180-195 minutes
  Amount of bile: 1.10 mL
